Results deposited as PubChem BioAssay AID1259405 (NCATS, 2018).

Screen: 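Mouse-designed siRNAs used to find CHO productivity engineering targets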 (primary screen)
System: Chinese hamster CHO-K1 ovary cells with stable secreted eGFP expression
Reagent: single siRNA against mouse genes, 0.8 pmol siRNA per well (2 µl of 400 nM stock)
Timing: 3 days
Detection: 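Per-well intracellular GFP measured by laser scanning cytometry, plus viability from ATP luminescence, each relative to plate median of non-targeting control wells, in %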
Scale: GFP, % of control: higher = more GFP per well, higher productivity; viability (ATP), % of control: higher = more viable cells (more ATP)
Call rule: 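Called active when intracellular GFP, relative to negative control, is at or above 120%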
Here is an unselected part of about 50,000 reagents. In the full data, about 4,000 (8%) were called active. 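Mouse siRNA library applied to hamster cells; one well for each siRNA.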 Entries without a mark were called inactive. The numbers tell different reagents against one gene apart. Reagent sequences are not shown.

no.	Target gene	reagent	GFP, % of control	viability (ATP), % of control
1	Oosp1	1	78.4	90.3
2	Oosp1	2	118	79.2
3	Oosp1	3	68.1	68.5
4	Gbp6	1	85.2	74.4
5	Gbp6	2	61.3	60.8
6	Gbp6	3	111	75.4
7	Mustn1	1	59.4	46.8
8	Mustn1	2	70	63.4
9	Mustn1	3	55	61.9
10	F2rl3	1	77.3	82.9
11	F2rl3	2	82.3	84.4
12	F2rl3	3	80.9	83.5
13	Leo1	1	88.3	96.9
14	Leo1	2	71.4	54.2
15	Leo1	3	110	61.9
16	Uba3	1	52.7	80.7
17	Uba3	2	72.7	82.6
18	Uba3	3	73.1	111
19	Cd2	1	55.8	64.8
20	Myo18a	1	61.1	77.3
21	Myo18a	2	126 (active)	77.6
22	Myh14	1	50.3	53.8
23	Myh14	2	123 (active)	89.5
24	Tac2	1	40.4	46.5
25	Tac2	2	45.2	56.3
26	Tac2	3	83.6	66.8
27	Hdgfl3	1	79.5	50.9
28	Hdgfl3	2	74.8	60.5
29	Hdgfl3	3	69	50.3
30	Pnp	1	69.2	75
31	Pnp	2	76.7	68.5
32	Pnp	3	51	62.7
33	Cebpa	1	63.1	53
34	Cebpa	2	74.5	51.5
35	Cebpa	3	106	111
36	Cnpy1	1	53.6	59.8
37	Cnpy1	2	57.8	57.3
38	Cnpy1	3	51.8	58.3
39	Atp13a2	1	88.6	71.4
40	Atp13a2	2	104	96.5
41	Atp13a2	3	94.9	62.4
42	Sgca	1	77.8	102
43	Sgca	2	79	100
44	Sgca	3	61.6	68
45	Clca2	1	141 (active)	104
46	Clca2	2	57.9	47.3
47	Clca2	3	96.8	63
48	Dpm3	1	105	103
49	Dpm3	2	115	101
50	Dpm3	3	36.4	24.6
51	Uqcr11	1	67.9	81.3
52	Uqcr11	2	50.7	59.4
53	Uqcr11	3	55.3	36.3
54	Tst	1	99.6	102
55	Tst	2	50.3	41.1
56	Tst	3	91.8	106
57	Edn2	1	86.9	75.7
58	Edn2	2	69.1	77.3
59	Edn2	3	70.4	87.3
60	Arhgap45	1	311 (active)	121
61	Arhgap45	2	67.5	57.9
62	Arhgap45	3	157 (active)	89.5
63	Arhgap45	4	67.2	85.1
64	Arhgap45	5	103	93.1
65	Arhgap45	6	90.2	97
66	Cerk	1	42.1	53.3
67	Slco6c1	1	54.9	54.5
68	Slco6c1	2	40.8	53.4
69	Slco6c1	3	62.9	75.5
70	Erp44	1	70.2	81.4
71	Erp44	2	80.2	93.5
72	Erp44	3	27.7	37.6
73	Odc1	1	83.1	48.6
74	Odc1	2	95.2	64.4
75	Zfp622	1	62.2	58.7
76	Zfp622	2	79.5	45.4
77	Zfp622	3	50.6	62.8
78	Ptp4a1	1	82.6	61.2
79	Ptp4a1	2	78.5	66.8
80	Ptp4a1	3	97.4	69.3
81	Pgk2	1	55.8	72.6
82	Daxx	1	75.3	103
83	Daxx	2	78.5	66.3
84	Tspan3	1	63.3	55.2
85	Tspan3	2	89.1	81.4
86	Tspan3	3	64.3	51.1
